In the supplement of paper PMC10849652:
The list shows a part of the results.

Amino acid sequences for entries named in this document (tags omitted). A change or cut given only in a name is not applied to a line headed by its entry.
UniProt Q8IY92: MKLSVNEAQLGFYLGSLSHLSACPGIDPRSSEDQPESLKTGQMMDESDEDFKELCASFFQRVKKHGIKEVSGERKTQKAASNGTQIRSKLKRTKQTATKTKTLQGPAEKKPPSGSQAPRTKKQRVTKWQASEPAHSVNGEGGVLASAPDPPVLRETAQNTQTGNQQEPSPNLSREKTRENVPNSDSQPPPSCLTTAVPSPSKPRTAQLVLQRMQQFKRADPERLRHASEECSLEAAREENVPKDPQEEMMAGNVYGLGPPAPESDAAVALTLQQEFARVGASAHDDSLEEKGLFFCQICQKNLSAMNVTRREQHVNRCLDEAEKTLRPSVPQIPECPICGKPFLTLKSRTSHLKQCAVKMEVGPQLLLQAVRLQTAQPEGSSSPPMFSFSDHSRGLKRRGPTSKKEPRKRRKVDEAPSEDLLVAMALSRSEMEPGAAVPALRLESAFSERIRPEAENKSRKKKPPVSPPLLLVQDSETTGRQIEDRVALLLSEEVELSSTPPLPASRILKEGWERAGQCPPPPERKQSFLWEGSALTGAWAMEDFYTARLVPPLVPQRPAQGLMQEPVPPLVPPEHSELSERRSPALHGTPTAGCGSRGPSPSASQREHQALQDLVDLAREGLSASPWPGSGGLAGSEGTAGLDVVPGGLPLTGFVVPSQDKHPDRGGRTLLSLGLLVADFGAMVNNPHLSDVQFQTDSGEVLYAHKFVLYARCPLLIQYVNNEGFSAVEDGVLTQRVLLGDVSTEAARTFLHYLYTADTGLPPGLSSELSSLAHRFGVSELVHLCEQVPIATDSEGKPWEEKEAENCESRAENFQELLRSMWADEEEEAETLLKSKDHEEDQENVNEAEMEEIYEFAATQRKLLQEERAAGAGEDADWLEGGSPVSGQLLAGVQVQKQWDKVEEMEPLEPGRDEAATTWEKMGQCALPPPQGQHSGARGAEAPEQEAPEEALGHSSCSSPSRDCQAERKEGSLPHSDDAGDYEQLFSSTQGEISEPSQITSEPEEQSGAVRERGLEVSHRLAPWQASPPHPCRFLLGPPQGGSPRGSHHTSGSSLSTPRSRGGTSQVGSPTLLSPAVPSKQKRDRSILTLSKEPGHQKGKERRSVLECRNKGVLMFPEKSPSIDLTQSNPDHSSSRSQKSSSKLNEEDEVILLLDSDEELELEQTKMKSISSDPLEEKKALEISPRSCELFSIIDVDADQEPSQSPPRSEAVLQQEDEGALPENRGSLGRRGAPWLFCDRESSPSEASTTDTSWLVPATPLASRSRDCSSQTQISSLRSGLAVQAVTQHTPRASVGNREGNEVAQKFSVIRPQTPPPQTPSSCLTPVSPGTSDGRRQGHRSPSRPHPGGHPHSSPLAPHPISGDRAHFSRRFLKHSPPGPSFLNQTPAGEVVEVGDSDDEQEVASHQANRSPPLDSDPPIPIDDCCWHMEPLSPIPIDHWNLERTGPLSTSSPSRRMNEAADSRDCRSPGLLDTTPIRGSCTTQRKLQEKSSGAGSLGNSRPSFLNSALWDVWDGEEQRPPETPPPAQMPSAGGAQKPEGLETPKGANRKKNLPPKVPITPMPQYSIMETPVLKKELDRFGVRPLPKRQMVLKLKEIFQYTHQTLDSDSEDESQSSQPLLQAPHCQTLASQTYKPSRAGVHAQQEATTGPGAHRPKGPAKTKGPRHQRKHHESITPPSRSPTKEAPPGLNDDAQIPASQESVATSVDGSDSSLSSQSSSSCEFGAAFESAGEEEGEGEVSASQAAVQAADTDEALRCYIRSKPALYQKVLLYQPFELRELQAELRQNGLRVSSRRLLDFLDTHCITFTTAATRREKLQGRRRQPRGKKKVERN
UniProt Q99717: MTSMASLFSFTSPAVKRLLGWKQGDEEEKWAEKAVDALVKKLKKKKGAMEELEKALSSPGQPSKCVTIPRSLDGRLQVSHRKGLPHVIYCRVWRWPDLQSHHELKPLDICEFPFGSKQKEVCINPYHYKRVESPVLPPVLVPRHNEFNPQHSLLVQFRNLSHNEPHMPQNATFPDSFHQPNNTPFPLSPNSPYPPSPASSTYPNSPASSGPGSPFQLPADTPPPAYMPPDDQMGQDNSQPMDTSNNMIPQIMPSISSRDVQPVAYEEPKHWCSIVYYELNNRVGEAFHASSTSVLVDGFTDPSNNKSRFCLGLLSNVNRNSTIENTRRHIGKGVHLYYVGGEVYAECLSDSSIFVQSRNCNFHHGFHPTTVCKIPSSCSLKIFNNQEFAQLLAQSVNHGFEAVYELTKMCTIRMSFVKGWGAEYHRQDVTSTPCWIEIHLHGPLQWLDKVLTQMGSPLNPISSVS
UniProt Q96CQ1: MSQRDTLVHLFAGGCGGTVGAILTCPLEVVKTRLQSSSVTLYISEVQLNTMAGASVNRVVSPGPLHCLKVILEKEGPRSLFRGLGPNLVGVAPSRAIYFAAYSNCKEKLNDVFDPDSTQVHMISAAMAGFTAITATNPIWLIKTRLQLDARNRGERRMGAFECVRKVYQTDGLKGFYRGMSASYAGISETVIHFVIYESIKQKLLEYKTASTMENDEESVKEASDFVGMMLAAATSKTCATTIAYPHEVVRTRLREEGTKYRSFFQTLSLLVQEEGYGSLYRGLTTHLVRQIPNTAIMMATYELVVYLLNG
UniProt O95391: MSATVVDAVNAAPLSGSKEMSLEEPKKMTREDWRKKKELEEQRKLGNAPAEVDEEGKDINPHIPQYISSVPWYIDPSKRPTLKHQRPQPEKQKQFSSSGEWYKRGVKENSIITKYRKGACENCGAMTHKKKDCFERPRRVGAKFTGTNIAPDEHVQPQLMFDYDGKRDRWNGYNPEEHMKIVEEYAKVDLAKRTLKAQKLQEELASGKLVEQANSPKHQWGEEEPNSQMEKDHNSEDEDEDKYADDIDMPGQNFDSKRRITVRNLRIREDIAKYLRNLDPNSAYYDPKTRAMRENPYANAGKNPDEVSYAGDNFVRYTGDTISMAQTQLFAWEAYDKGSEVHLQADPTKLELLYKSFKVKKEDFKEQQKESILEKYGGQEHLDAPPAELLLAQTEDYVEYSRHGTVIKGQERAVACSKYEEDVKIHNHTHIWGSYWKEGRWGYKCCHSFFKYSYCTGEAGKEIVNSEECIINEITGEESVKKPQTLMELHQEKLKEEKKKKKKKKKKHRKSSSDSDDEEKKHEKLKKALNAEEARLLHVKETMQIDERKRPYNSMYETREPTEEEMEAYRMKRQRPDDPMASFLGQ
UniProt Q0VAQ4: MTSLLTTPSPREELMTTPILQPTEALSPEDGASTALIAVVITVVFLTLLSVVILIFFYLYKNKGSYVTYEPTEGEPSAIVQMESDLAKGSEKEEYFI
UniProt Q9BRV3: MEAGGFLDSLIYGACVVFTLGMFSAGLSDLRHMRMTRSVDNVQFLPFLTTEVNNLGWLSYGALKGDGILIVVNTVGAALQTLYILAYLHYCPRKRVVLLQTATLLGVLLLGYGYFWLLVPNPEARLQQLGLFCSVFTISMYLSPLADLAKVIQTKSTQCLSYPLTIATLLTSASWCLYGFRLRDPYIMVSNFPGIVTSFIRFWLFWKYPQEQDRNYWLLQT
UniProt P16260: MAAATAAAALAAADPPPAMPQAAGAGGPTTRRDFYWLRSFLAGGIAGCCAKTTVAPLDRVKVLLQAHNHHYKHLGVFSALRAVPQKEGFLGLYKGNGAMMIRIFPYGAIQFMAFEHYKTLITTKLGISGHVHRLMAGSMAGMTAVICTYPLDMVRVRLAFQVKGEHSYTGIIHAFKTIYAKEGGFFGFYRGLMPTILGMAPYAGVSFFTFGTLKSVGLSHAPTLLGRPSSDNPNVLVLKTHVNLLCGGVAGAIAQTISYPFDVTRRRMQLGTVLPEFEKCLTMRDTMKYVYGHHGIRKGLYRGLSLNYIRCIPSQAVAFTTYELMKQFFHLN
UniProt Q3KQZ1: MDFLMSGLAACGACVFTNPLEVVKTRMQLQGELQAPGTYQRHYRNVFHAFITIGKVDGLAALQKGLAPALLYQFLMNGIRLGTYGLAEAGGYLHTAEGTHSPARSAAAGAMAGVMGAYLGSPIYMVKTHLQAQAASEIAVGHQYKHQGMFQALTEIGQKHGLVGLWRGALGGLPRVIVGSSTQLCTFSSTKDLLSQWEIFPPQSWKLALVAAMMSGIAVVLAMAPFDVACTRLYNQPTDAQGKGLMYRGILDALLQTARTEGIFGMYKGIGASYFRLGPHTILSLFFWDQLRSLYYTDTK
UniProt Q86WA9: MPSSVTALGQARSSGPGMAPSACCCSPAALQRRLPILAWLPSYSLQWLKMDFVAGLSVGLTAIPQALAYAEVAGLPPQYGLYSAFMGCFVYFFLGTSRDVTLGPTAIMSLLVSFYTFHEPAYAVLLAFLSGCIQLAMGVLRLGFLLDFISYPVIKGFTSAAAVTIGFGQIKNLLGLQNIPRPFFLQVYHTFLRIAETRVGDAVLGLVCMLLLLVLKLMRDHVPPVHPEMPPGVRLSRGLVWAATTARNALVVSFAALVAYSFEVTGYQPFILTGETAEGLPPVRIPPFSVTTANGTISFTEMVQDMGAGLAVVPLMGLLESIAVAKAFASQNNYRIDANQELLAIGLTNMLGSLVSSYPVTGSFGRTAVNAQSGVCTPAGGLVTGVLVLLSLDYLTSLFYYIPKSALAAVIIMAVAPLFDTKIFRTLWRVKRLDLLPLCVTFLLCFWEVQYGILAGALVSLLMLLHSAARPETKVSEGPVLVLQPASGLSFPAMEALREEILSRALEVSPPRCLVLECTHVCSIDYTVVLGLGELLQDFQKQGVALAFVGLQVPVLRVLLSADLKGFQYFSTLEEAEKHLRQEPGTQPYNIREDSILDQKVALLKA
UniProt Q86UD5: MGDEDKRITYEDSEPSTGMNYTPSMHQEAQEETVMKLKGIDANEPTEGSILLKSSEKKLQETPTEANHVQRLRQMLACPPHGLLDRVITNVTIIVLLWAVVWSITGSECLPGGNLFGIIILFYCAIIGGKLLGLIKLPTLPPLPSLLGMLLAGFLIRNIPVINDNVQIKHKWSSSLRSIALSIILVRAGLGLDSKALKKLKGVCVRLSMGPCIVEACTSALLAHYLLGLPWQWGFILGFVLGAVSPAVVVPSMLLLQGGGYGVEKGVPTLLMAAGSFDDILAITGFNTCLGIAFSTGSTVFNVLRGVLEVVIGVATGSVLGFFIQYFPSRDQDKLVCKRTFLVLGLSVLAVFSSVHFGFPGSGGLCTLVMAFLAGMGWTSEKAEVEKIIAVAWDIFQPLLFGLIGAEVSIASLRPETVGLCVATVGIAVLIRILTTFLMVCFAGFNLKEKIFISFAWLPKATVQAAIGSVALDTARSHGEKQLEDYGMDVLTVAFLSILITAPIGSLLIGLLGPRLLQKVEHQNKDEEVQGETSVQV
UniProt Q13433: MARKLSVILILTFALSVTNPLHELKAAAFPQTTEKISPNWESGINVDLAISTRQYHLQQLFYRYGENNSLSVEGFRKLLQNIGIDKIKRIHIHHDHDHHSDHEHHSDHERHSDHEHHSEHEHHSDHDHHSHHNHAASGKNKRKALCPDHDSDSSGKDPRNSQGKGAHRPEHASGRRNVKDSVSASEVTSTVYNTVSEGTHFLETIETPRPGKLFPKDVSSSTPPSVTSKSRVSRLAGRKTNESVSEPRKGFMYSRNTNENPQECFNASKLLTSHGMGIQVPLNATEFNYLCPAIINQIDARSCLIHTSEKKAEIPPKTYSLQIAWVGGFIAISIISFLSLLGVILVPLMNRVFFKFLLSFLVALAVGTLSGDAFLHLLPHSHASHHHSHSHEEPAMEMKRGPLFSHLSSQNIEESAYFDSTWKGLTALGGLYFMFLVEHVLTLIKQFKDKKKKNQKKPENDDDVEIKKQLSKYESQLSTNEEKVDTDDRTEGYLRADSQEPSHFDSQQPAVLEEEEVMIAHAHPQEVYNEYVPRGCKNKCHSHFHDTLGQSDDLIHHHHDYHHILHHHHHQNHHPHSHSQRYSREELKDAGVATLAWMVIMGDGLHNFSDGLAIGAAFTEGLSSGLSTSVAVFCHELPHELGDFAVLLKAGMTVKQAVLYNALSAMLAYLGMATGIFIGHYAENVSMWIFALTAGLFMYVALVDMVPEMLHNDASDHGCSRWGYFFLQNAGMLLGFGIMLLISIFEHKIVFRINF
UniProt Q9BZD2: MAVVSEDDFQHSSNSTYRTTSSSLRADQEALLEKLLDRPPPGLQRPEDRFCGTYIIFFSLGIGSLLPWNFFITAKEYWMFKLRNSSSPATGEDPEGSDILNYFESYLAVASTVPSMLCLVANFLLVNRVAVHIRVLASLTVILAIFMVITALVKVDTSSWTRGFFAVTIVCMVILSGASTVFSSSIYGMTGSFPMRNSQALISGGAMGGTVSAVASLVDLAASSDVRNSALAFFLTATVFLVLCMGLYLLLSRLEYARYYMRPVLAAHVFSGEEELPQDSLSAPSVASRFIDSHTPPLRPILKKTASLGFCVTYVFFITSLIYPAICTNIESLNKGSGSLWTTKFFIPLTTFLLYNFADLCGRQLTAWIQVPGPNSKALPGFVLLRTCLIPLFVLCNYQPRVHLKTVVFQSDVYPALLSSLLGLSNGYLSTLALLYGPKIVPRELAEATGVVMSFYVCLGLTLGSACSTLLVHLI

Compound: Cn1cc(-c2ccc3c(c2)CCN3C(=O)Cc2cccc(C(F)(F)F)c2)c2c(N)ncnc21
Assay: log2 fold change, soluble protein after heating vs DMSO (PISA); higher = thermal stabilisation; K562 lysate, 10 uM; active = over 0.2 and 3.5 SD of the protein, either way, in both replicates (recomputed)
Summary of the method: (§1)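 Following dounce homogenisation of K562 pellets in PBS pH 7.4 with 1 mM MgCl2, crude extract at 1 mg/mL protein was incubated for 30 min with 10 μM compound. Aliquots were then heated for 3 min over 48°C-58°C and pooled, NP-40 was added to 0.5% at 4°C, and soluble protein was recovered as the supernatant at 21,000xg for 90 min. Channel-sum-equalised TMTpro 16plex LC-MS/MS quantified this protein. Each value, from duplicates, is a log-two fold change in thermal stability relative to solvent controls.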

log2 fold change, inactive:
SLC46A1 (UniProt Q96NT5) -0.023
SLC25A39 (UniProt Q9BZJ4) -0.306
SLX4 (UniProt Q8IY92) -0.135
SLC66A3 (UniProt Q8N755) 0.237
SLC35B1 isoform 2 (UniProt P78383) -0.074
SMAD5 (UniProt Q99717) -0.041
SLC25A36 (UniProt Q96CQ1) 0.085
SLC44A1 (UniProt Q8WWI5) -0.05
SLC40A1 (UniProt Q9NP59) -0.02
SLU7 (UniProt O95391) 0.013
SLC23A2 (UniProt Q9UGH3) -0.014
SMAD3 (UniProt P84022) -0.078
SLC2A13 (UniProt Q96QE2) -0.227
SMAGP (UniProt Q0VAQ4) 0.005
SLC50A1 (UniProt Q9BRV3) -0.168
SLC25A23 isoform 3 (UniProt Q9BV35) -0.078
SLC8B1 (UniProt Q6J4K2) 0.094
SLC66A2 (UniProt Q8N2U9) -0.064

Compound: Cn1cc(CNCC2CCN(c3ncc(C(=O)NO)cn3)CC2)c2ccccc21 [quisinostat]
Assay: as above
Summary of the method: as §1

log2 fold change, inactive:
SLC39A8 (UniProt Q9C0K1) -0.078
SLC66A3 (UniProt Q8N755) -0.018
SLC35B1 isoform 2 (UniProt P78383) 0.217
SLC35A3 isoform 2 (UniProt Q9Y2D2) -0.241
SLC25A16 (UniProt P16260) -0.001
SMAD5 (UniProt Q99717) -0.079
SLC25A35 (UniProt Q3KQZ1) 0.051
SLC25A36 (UniProt Q96CQ1) 0.045
SLC40A1 (UniProt Q9NP59) -0.079
SLU7 (UniProt O95391) 0.244
SLC23A2 (UniProt Q9UGH3) 0.153
SLC26A11 (UniProt Q86WA9) -0.134
SLC9B2 (UniProt Q86UD5) -0.114
SLC41A1 (UniProt Q8IVJ1) 0.23
SMAD3 (UniProt P84022) -0.033
SLC39A6 (UniProt Q13433) 0.082
SMAGP (UniProt Q0VAQ4) -0.004
SLFN14 (UniProt P0C7P3) 0.129
SLC35D1 (UniProt Q9NTN3) -0.198
SLC35A1 (UniProt P78382) -0.246
SLC29A3 (UniProt Q9BZD2) -0.129
SLC50A1 (UniProt Q9BRV3) -0.147
SLC25A28 (UniProt Q96A46) -0.1
SLC25A23 isoform 3 (UniProt Q9BV35) 0.156
